# In all, about 390,000 compounds went through this assay and about 820 (0.21%) were called active. The inconclusive results got no clear call from the source; some entries with a clear call stand among them for comparison. The call rests on the fitted dose curve; in most records, active means well fitted inhibition curve with a large enough effect; inconclusive means small, poorly fitted or top-dose-only effect, or another doubt; inactive means no such curve, though single readings can be large or run the other way. Potencies beside an inconclusive call are fits to weak or partial responses and may not hold up.
# Sequences of proteins named here, by UniProt entry; tags and fusion partners are left off.
# UniProt Q92830, whole entry, looked up: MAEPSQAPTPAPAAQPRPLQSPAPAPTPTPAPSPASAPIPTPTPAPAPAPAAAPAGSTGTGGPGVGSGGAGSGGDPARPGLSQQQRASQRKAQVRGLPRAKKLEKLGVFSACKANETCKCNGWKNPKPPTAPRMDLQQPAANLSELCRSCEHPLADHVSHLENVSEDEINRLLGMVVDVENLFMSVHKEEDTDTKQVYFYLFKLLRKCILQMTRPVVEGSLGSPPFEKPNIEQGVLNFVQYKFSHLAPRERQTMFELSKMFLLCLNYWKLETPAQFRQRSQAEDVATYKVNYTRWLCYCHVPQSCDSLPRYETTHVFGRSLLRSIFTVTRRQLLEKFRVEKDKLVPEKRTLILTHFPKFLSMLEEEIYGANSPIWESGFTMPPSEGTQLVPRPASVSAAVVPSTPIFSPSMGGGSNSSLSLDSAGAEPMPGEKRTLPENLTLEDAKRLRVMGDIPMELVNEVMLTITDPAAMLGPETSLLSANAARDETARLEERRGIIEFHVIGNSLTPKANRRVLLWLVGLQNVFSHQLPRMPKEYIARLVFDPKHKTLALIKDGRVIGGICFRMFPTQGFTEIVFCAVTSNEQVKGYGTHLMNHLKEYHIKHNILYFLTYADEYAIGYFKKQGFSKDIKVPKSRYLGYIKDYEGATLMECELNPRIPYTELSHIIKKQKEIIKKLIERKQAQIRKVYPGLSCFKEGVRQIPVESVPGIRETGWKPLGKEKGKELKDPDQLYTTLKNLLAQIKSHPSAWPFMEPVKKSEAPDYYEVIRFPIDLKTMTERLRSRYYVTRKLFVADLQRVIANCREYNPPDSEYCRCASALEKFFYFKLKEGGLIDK
# Molecular target: Histone acetyltransferase KAT2A (Homo sapiens) (UniProt Q92830)
# Experiment: qHTS Assay for Inhibitors of GCN5L2
# Conditions: GCN5L2 HAT assay, ThioGlo1 CoA-SH fluorescence; activity change, negative = inhibition: at 58.9 µM (top of the series) unless noted
# Outline: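 Preincubate 20nM GCN5L2 with compound 15 min, RT → add 50uM ThioGlo1 + 75uM H3(1-25) + 70uM acetyl-CoA → read fluorescence 0 and 20 min. Primary qHTS; fluorescent artifacts likely.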
# On the % scale 0 is the no-effect control and ±100 the full control effect; potency means the concentration at half of the fitted maximal effect.
SMILES,Potency,"activity change, negative = inhibition"
O=C(CN1C(=O)COc2ccc(S(=O)(=O)N3CCCCCC3)cc21)NCCc1ccccc1,inactive,
CCCCc1oc2c(c(=O)c1C)C(=O)CC(c1ccccc1)C2 (stereo not given),,inconclusive: -56.8% [inhibitor]
CCn1c2ccccc2c2cc(NC(=O)CSc3nnc(C4CC4)n3Cc3ccco3)ccc21,"inconclusive: 0.708 µM [inhibitor, full curve, poor fit]",
Cc1ccc2c(cnn2C(=O)CCC(=O)N2CCCCC2)c1,"inconclusive: 20 µM [inhibitor, partial curve]",
CCOC(=O)C1=C(C)N(c2ccccc2)C(=O)/C1=C\c1ccc(O)c(OC)c1,"inconclusive: 39.8 µM [inhibitor, single point]",
O=C(CSc1nnc(-c2ccco2)n1CC1CCCO1)N1CCCCC1 (stereo not given),inactive,
O=C1ON=C(c2ccccc2)/C1=C\c1ccco1,"inconclusive: 20 µM [inhibitor, single point]",
O=C(O)c1ccc2c(=O)n(Cc3ccccc3)c(SCc3ccc([N+](=O)[O-])cc3)nc2c1,inactive,
O=C(NC1CCCCC1)c1cc2nc(-c3ccco3)cc(C(F)(F)F)n2n1,"inconclusive: 20 µM [inhibitor, single point]",
Cc1csc(NC(=O)CCNC(=O)c2ccc([N+](=O)[O-])cc2)n1,inactive,
CCCCn1c(SCc2nc3ccccc3s2)nc2cc(S(N)(=O)=O)ccc21,"inconclusive: 39.8 µM [inhibitor, single point]",
Cc1ccc(CN2C(=O)N/C(=C\c3ccc(-c4ccc(C(=O)O)cc4C)o3)C2=O)cc1,"inconclusive: 22.4 µM [inhibitor, partial curve, poor fit]",
C/C=C\C(=O)Nc1cccc(C2=NOC3(C2)C[C@H](C(N)=O)N(C(=O)[C@H]2CCC(=O)N2)C3)c1 (stereo not given in full),"inconclusive: 7.08 µM [inhibitor, single point]",
O=C(c1cnn(-c2ccccc2)c1)c1cc(F)ccc1O,"inconclusive: 0.447 µM [inhibitor, partial curve, poor fit]",
CCCn1nnc(NC(=O)Cc2ccccc2)n1,"inconclusive: 39.8 µM [inhibitor, single point]",
COc1ccc(NC(C)C(=O)N/N=C/c2ccccc2OCc2ccc(Br)cc2)cc1 (stereo not given),inactive,
CCOC(=O)c1ccc(-c2c(-c3cc(OC)c(OC)c(OC)c3)noc2C)cc1F,"inconclusive: 39.8 µM [inhibitor, single point]",
C=CCOC(=O)C1=C(C)N=c2s/c(=C3\C(=O)N(CC(=O)O)c4ccccc43)c(=O)n2C1c1ccc(OC)cc1 (stereo not given),"inconclusive: 31.6 µM [inhibitor, single point]",
Fc1ccccc1/C=N/n1cc(-c2ccccc2)[nH]c1=S,inactive,
O=S(=O)(Nc1cc2nc3ccccc3nc2n1Cc1ccccc1)c1ccc(Cl)cc1,"inconclusive: 28.2 µM [inhibitor, single point]",
CCOC(=O)c1ccccc1NC(=O)c1cc2c(s1)-c1ccccc1SC2,inactive,
COc1cc2c(C#N)c(N3CCN(C)CC3)nc(N)c2c(N)n1,inactive,

SMILES,Potency,"activity change, negative = inhibition"
OCc1cc2c(cn1)[nH]c1ccccc12,"inconclusive: 31.6 µM [inhibitor, partial curve]",
C=CCSC1=N/C(=C\C=C\c2ccco2)C(=O)S1,"inconclusive: 5.62 µM [inhibitor, full curve]",
COc1ccc(-c2csc(NC(=O)c3ccoc3C)n2)cc1,inactive,
Cc1nc(SCc2nc3ccccc3[nH]2)c2oc3ccccc3c2n1,"inconclusive: 20 µM [inhibitor, single point]",
Cc1c(CC(=O)O)c(=O)oc2cc3occ(-c4ccc(F)cc4)c3cc12,"inconclusive: 0.708 µM [inhibitor, single point]",
CSc1nc(=S)cc(C)[nH]1,"inconclusive: 25.1 µM [inhibitor, single point]",
CCOC(=O)CSc1nc(-c2ccc3c(c2)OCO3)ccc1C#N,"inconclusive: 39.8 µM [inhibitor, single point]",
O=C(Nc1ccc(Nc2ccncc2)cc1)c1ccc(Nc2ccnc3ccc([N+](=O)[O-])cc23)cc1,"inconclusive: 28.2 µM [inhibitor, partial curve, poor fit]",
COc1ccc([N+](=O)[O-])cc1NC(=O)CCc1ccccc1,"inconclusive: 31.6 µM [inhibitor, single point]",
CC1CCN(S(=O)(=O)c2ccc3[nH]c(=O)c(=O)[nH]c3c2)CC1,"inconclusive: 8.91 µM [inhibitor, single point]",
COc1ccc(NC(=O)Nc2ccon2)cc1OC,"inconclusive: 28.2 µM [inhibitor, single point]",
CCOC(=O)c1ccc(NC(=O)c2nc[nH]c2C(=O)N[C@@H](Cc2ccccc2)C(=O)OC(C)(C)C)cc1,"inconclusive: 15.8 µM [inhibitor, single point]",
O=c1oc2ccc(Cl)cc2nc1/C=C(\O)c1cccs1,inactive,
CC(=O)c1ccc(NC(=O)C(C)N2CCN(C/C=C/c3ccccc3)CC2)cc1 (stereo not given),inactive,
COc1ccc(C(=O)NNc2ncnc3c2cnn3-c2ccc(C)cc2C)cc1,inactive,
CCOC(=O)[C@@H]1[C@H]2COc3cc(OC)ccc3[C@@H]2N2C(=O)N(c3ccccc3)C(=O)[C@]12C,"inconclusive: 39.8 µM [inhibitor, single point]",
O=C(CCS(=O)(=O)c1ccccc1)Nc1ccc(-c2nc3ccccc3s2)c(O)c1,"inconclusive: 22.4 µM [inhibitor, partial curve]",
Cc1ccc(-c2nc3ccccn3c2Nc2ccccc2)o1,"inconclusive: 31.6 µM [inhibitor, single point]",
O=C(O)c1ccccc1Nc1cc(Cl)cc(Cl)c1,"inconclusive: 35.5 µM [inhibitor, single point]",
O=C(CCCN1C(=O)/C(=C\c2ccco2)SC1=S)Nc1cccc2ccccc12,"inconclusive: 20 µM [inhibitor, partial curve]",
CC(=O)NCCN1C(=O)S/C(=C\c2cccs2)C1=O,inactive,
Cc1cc(=O)n2nc(N3CCCC(C(=O)NCc4ccccc4C)C3)sc2n1 (stereo not given),"inconclusive: 0.794 µM [inhibitor, partial curve, poor fit]",

# Filtered by structure: those above with a cyano group
SMILES,Potency,"activity change, negative = inhibition"
COc1cc2c(C#N)c(N3CCN(C)CC3)nc(N)c2c(N)n1,inactive,
CCOC(=O)CSc1nc(-c2ccc3c(c2)OCO3)ccc1C#N,"inconclusive: 39.8 µM [inhibitor, single point]",

# Going on with the list:

SMILES,Potency,"activity change, negative = inhibition"
CC1=C(C#N)C(=O)NC(=O)/C1=C\c1ccc(-c2cc(C)c(C)cc2[N+](=O)[O-])o1,"inconclusive: 39.8 µM [inhibitor, single point]",
C/C=C(\C)CN1CCC(n2nccc2NC(=O)CCCc2ccccc2)CC1,"inconclusive: 0.794 µM [inhibitor, full curve, poor fit]",
CC(C)c1ccc(NC(=O)CSc2nc(=O)n(CCN3CCOCC3)c3c2CCC3)cc1,"inconclusive: 39.8 µM [inhibitor, single point]",
Cc1cc(C)c(CSc2ncc(-c3ccc([N+](=O)[O-])cc3)[nH]2)c(C)c1,"inconclusive: 28.2 µM [inhibitor, single point]",
CC1CC(C)CN(S(=O)(=O)c2ccc(NC(=O)CN3C(=O)NC(C)(c4ccccc4)C3=O)cc2)C1 (stereo not given),"inconclusive: 4.47 µM [inhibitor, single point]",
COC(=O)c1cc2ccsc2n1Cc1cc(=O)n2ccccc2n1,"inconclusive: 0.794 µM [inhibitor, full curve, poor fit]",
COc1ccccc1-c1coc2c(CN3CCC(C)CC3)c(O)ccc2c1=O,"inconclusive: 39.8 µM [inhibitor, single point]",
COc1ccc(C2=CC(c3cccc(OC)c3)n3nnnc3N2)cc1 (stereo not given),"inconclusive: 20 µM [inhibitor, single point]",
COCCn1c(=O)c(-c2cccc(C#N)c2)nc2cnc(N3CCNCC3)nc21,"inconclusive: 39.8 µM [inhibitor, single point]",
CC(=O)c1ccc(OCc2cc(C(=O)N(C)Cc3ncc(C)[nH]3)no2)cc1,"inconclusive: 0.501 µM [inhibitor, partial curve, poor fit]",
COc1ccc(NC(=O)COc2ccc(/C=C/c3cc[n+](C)cc3)cc2OC)cc1,inactive,
CSC1=N/C(=C\c2ccccc2)C(=O)N1C,"inconclusive: 0.891 µM [inhibitor, single point]",
O=C(Nc1cccc(-c2cnc3ccccc3n2)c1)C1CC(=O)N(c2ccccc2)C1 (stereo not given),"inconclusive: 0.794 µM [inhibitor, full curve, poor fit]",
COc1ccccc1NC(=O)CSc1nnc(CCC(=O)Nc2ccccc2F)n1C,active: 35.5 µM,
Nc1ccc2nc(-c3cccc(-c4nc5ccc(N)cc5[nH]4)c3)[nH]c2c1,inactive,
Cc1nc(SCC(=O)O)c(C#N)c2c1CCCC2,inactive,
Cn1cc(S(=O)(=O)N2CCc3ccccc32)cc1C(=O)Nc1ccc(Cl)cc1,"inconclusive: 39.8 µM [inhibitor, single point]",
Cc1[nH]c(=S)[nH]c(=O)c1CCC1OCCO1,"inconclusive: 3.55 µM [inhibitor, full curve, poor fit]",
Cc1onc(-c2ccccc2Cl)c1C(=O)N/N=C(\N)COc1ccc(Cl)cc1,"inconclusive: 0.631 µM [inhibitor, single point]",
CC(C)(C)OC(=O)NCCCC[C@H](NC(=O)c1nc[nH]c1C(=O)NCC(=O)OCc1ccccc1)C(=O)OC(C)(C)C,"inconclusive: 39.8 µM [inhibitor, single point]",
CS(=O)(=O)c1ccc2c(c1)sc1nc(=O)c(/C=C3/C=CC(=O)C(O)=C3)c(N)n12,"inconclusive: 14.1 µM [inhibitor, partial curve]",

# Some of these compounds in order of SMILES length, smallest number first.
SMILES,Potency,"activity change, negative = inhibition"
O=c1oc2ccc(Cl)cc2nc1/C=C(\O)c1cccs1,inactive,
CCOC(=O)CSc1nc(-c2ccc3c(c2)OCO3)ccc1C#N,"inconclusive: 39.8 µM [inhibitor, single point]",
CC(C)c1ccc(NC(=O)CSc2nc(=O)n(CCN3CCOCC3)c3c2CCC3)cc1,"inconclusive: 39.8 µM [inhibitor, single point]",

# Source: PubChem BioAssay AID504327 (National Center for Advancing Translational Sciences (NCATS), 2011)
